# The list shows a part of the results. Shown are side measurements of this screen, not its main read-out; they come without a call. Most of these compounds were active or inconclusive in the main read-out, so they are no random draw. The note in brackets gives the kind of curve behind each potency; many fits are weak.
# Assay: qHTS Assay for Lipid Storage Modulators in Drosophila S3 Cells;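 as to cell number change: cells counted by Cell Tracker Red CMTPX staining in the red channel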
# Conditions: BODIPY lipid droplet fluorescence, 18-24 h; for cell number change: measured here: cell count max response, cells fed with added oleic acid
# Summary of the method: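 Drosophila S3 cells got compounds at several concentrations plus oleic acid (400 uM solution). Laser-scanning cytometry with 488 nm excitation read lipid droplets at 500-530 nm and cells at 575-640 nm. Percent activity was relative to 20 uM Triacsin C.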
# [1] = measured here: lipid fluorescence (Fed channel) AC50, cells fed with added oleic acid
# [2] = measured here: cell number channel AC50, cells fed with added oleic acid
compound,measurement,setting,value
O=C(CCSc1ccccc1)Nc1ccc(S(=O)(=O)N2CCOCC2)cc1,cell number change,,-1.78%
same,AC50,[1],"3.66 µM [rising, single point]"
COc1cccc(NS(=O)(=O)c2csc(C(N)=O)c2)c1,cell number change,,-9.15%
same,AC50,[1],"23.1 µM [rising, single point]"
CCC(=O)Nc1ccc2c(c1)N(C(C)=O)c1ccccc1CC2,cell number change,,-11.5%
COc1cc(OC)cc(C(=O)Nc2nc(CC(=O)NCCc3ccccc3)cs2)c1,cell number change,,-114%
same,AC50,[2],"29.1 µM [falling, single point]"
CC1CC(C)CN(C(=O)C(C)N(C)CC(=O)Nc2ccc(Cl)cc2)C1 (stereo not given),cell number change,,-30.3%
same,AC50,[2],"18.4 µM [falling, partial curve, poor fit]"
same,AC50,[1],"32.6 µM [falling, single point]"
COc1ccccc1OCCn1c(=O)oc2ccc(C)cc21,cell number change,,38.7%
same,AC50,[1],"16.4 µM [rising, partial curve, poor fit]"
O=C(Nc1nccs1)c1ccc(Br)o1,cell number change,,25.2%
same,AC50,[1],"25.9 µM [rising, single point]"
O=C(COC(=O)/C=C/c1cccc(Cl)c1)Nc1ccccc1-c1ccccc1,cell number change,,30.7%
same,AC50,[2],"8.2 µM [rising, single point]"
CCN(CC)C(=O)C1CC(=O)N(c2ccc(F)c(Cl)c2)C1 (stereo not given),cell number change,,-6.9%
same,AC50,[1],"29.1 µM [rising, single point]"
Cc1c(NC(=O)CSc2nnc(-c3cccc(Cl)c3)o2)c(=O)n(-c2ccccc2)n1C,cell number change,,34%
same,AC50,[2],"29.1 µM [rising, single point]"
COc1ccccc1C(=O)Nc1nc2ccccc2s1,cell number change,,-29.6%
same,AC50,[1],"0.0731 µM [falling, full curve, poor fit]"
CCCSc1cc(NCCOC(=O)CCC)c([N+](=O)[O-])c2nonc12,cell number change,,-60.9%
same,AC50,[2],"29.1 µM [falling, single point]"
same,AC50,[1],"29.1 µM [falling, single point]"
Cc1cc(C(=O)C(=O)NC(C)C)c(C)n1-c1ccc([N+](=O)[O-])cc1,AC50,[1],"6.51 µM [rising, partial curve]"
CCNC(=S)NC(=NCc1cccnc1)Nc1nc(C)cc(C)n1,cell number change,,6.42%
COc1ccc(OC)c(C(=O)CSc2nc3c(c(=O)n(C)c(=O)n3C)n2C(C)C)c1,cell number change,,0.351%
same,AC50,[1],"3.66 µM [falling, full curve, poor fit]"
COc1ccc(N(Cc2ccccc2)S(=O)(=O)c2cccc(C(=O)O)c2)cc1,cell number change,,-40.2%
same,AC50,[2],"4.61 µM [falling, full curve]"
same,AC50,[1],"3.66 µM [falling, partial curve]"
CC(=O)C1=C(c2ccccc2)NC(=S)NC1c1ccc(O)c(O)c1 (stereo not given),cell number change,,35.8%
same,AC50,[2],"8.2 µM [rising, partial curve, poor fit]"
C=CCn1c(N)c(-c2nc3ccccc3n2C)sc1=S,cell number change,,-11.1%
same,AC50,[1],"29.1 µM [rising, single point]"
COc1ccc(Nc2nnc(SC(C(=O)Nc3cc(C)ccc3C)c3ccccc3)s2)cc1 (stereo not given),cell number change,,32.9%
same,AC50,[2],"0.058 µM [rising, full curve, poor fit]"
same,AC50,[1],"0.651 µM [rising, single point]"
Cc1ccc(Cn2c(C(=O)NCCCN3CCOCC3)cc3sccc32)cc1,cell number change,,-25.3%
same,AC50,[1],"8.2 µM [falling, partial curve]"
O=C(Nc1nc2ccc(Br)cc2s1)c1ccco1,cell number change,,4.38%
same,AC50,[2],"0.259 µM [rising, full curve, poor fit]"
CCN1CCN(C(CNS(=O)(=O)c2ccc(OC)c(C)c2)c2cccnc2)CC1 (stereo not given),cell number change,,19.4%
CCCN1Cc2cccc(C(=O)Nc3ccc4c(c3)OCCO4)c2C1=O,cell number change,,-35.4%
same,AC50,[2],"18.4 µM [falling, single point]"
Cc1cc(C(=O)OCn2nnc3ccccc3c2=O)c(C)o1,cell number change,,49.4%
same,AC50,[2],"7.31 µM [rising, partial curve, poor fit]"
same,AC50,[1],"29.1 µM [rising, single point]"
COc1ccc(/C=N/Nc2nc(-c3ccc(Cl)cc3)cc(C(F)(F)F)n2)cc1OC,cell number change,,3.29%
same,AC50,[2],"1.16 µM [rising, partial curve]"
Cc1ccc(N2CC(C(=O)NCc3nnnn3-c3ccc(C)c(C)c3)CC2=O)cc1 (stereo not given),cell number change,,5.34%
same,AC50,[1],"29.1 µM [rising, single point]"
NC(=O)c1ccc(NC(=O)COC(=O)c2ccc3c(c2)OCO3)cc1,cell number change,,-26.8%
CC(=O)Cn1ncc(N2CCCCC2)c(Cl)c1=O,AC50,[2],"6.51 µM [falling, single point]"
same,AC50,[1],"5.17 µM [falling, single point]"
COc1cc2cc(C(=O)N(C)C3CCS(=O)(=O)C3)[nH]c2cc1OC (stereo not given),cell number change,,-9.44%
same,AC50,[1],"29.1 µM [rising, single point]"
CC(OC(=O)Cc1ccccc1[N+](=O)[O-])C(=O)Nc1ccc(Cl)cn1 (stereo not given),cell number change,,-34.1%
O=C(OC(C(=O)NC1CCCCC1)c1ccc(C(F)(F)F)cc1)c1ccco1 (stereo not given),cell number change,,-14.1%
O=C(CCC1CCCN(C(=O)c2ccco2)C1)NCc1ccccc1F (stereo not given),cell number change,,-40.5%
same,AC50,[2],"18.4 µM [falling, partial curve, poor fit]"
same,AC50,[1],"32.6 µM [falling, partial curve, poor fit]"
CCCCOc1ccc(N(CC(=O)NCc2ccccc2)C(=O)c2csnn2)cc1,cell number change,,11.4%
COc1ccc(-n2c(Cc3cc(=O)[nH]c(=O)[nH]3)nnc2SCC(=O)NC2CCCC2)cc1,cell number change,,9.79%
Cc1noc(C)c1CN1C(=O)NC2(CCc3ccccc3C2)C1=O (stereo not given),cell number change,,0.849%
same,AC50,[1],"3.66 µM [rising, single point]"
CCCCCCN(C(=O)CCCCCN1C(=O)NC(c2ccc(-c3ccccc3)cc2)C(C(=O)OCc2ccccc2)=C1C)C(C(=O)NCCCC)c1cccc(C(=O)OC)c1 (stereo not given),cell number change,,12%
same,AC50,[1],"3.26 µM [rising, full curve, poor fit]"
COc1ccc(N2CCN(c3ccc(N)cc3C#N)CC2)cc1,AC50,[1],"6.51 µM [rising, single point]"
CCOC(=O)c1sc(C)c2c(=O)n(CC(=O)c3ccc(Br)cc3)nnc12,cell number change,,-12.7%
same,AC50,[1],"6.51 µM [falling, single point]"
O=C(CCl)Oc1ccc2occ(C(=O)c3cccs3)c2c1,cell number change,,5.83%
CCOC(=O)C1=C(COC(=O)CNC(=O)c2cc(OC)c(OC)c(OC)c2)NC(=O)NC1C (stereo not given),cell number change,,-10%
CC(C)NC(=O)c1cc(-c2cccs2)on1,cell number change,,32.3%
same,AC50,[2],"16.4 µM [rising, single point]"
same,AC50,[1],"0.116 µM [falling, full curve, poor fit]"
CCCCn1nnnc1SCC(=O)Nc1ccc2c(c1)OCCO2,cell number change,,-7.54%
CCOc1cccc2sc(N(CCCN(C)C)C(=O)c3ccc(C(=O)c4ccccc4)cc3)nc12,cell number change,,-26.9%
same,AC50,[1],"29.1 µM [falling, single point]"
CN(CC(=O)Nc1ccccc1F)Cc1cccs1,cell number change,,-4.7%
same,AC50,[1],"2.06 µM [rising, full curve]"
COc1ccc(CC(=O)N2CCc3cc(OC)c(OC)cc3C2)cc1,cell number change,,9.01%
same,AC50,[1],"0.103 µM [falling, full curve, poor fit]"
CC(NC(=O)COc1ccc(Oc2ccccc2)cc1)C(=O)O (stereo not given),cell number change,,3.13%
same,AC50,[1],"0.461 µM [rising, single point]"
CN(C)CCN(C)Cc1c2ccccc2c(CN(C)CCN(C)C)c2ccccc12,cell number change,,21.7%
same,AC50,[1],"23.1 µM [rising, single point]"
Cc1ccc([N+](=O)[O-])cc1NC(=S)NC(=O)CC(C)(C)C,cell number change,,59.4%
C/C(=N\NC(=O)C1CC1)c1ccc(Cl)c(Cl)c1,cell number change,,79.4%
same,AC50,[2],"2.31 µM [rising, full curve]"
same,AC50,[1],"3.26 µM [rising, full curve]"
CC(Sc1ccc(S(=O)(=O)N2CCN(C)CC2)cn1)C(=O)NC1(C#N)CCCCC1 (stereo not given),cell number change,,-17.3%
Cc1cc(C)cc(C(=O)N2CCC(C(N)=O)CC2)c1,AC50,[2],"5.8 µM [falling, single point]"
same,AC50,[1],"4.61 µM [falling, partial curve]"
O=C(O)c1cccc(Cl)n1,cell number change,,12%
CC(CC(=O)NNC(=O)c1ccncc1)c1ccccc1 (stereo not given),cell number change,,4.49%
same,AC50,[1],"0.0058 µM [rising, full curve]"
O=C(N/N=C\c1cc(Br)cs1)c1ccncc1,cell number change,,8.43%
same,AC50,[1],"3.26 µM [rising, full curve]"
CC(C)N(Cc1ccccc1)C(=S)NCc1ccccc1,cell number change,,74.6%
same,AC50,[2],"20.6 µM [rising, single point]"
CCOC(=O)CNc1ccc(C(=O)OCC)cc1[N+](=O)[O-],cell number change,,7.31%
CN(CC(=O)Nc1ccc(N2CCOCC2)cc1)Cc1c(O)ccc2ccccc12,cell number change,,-32.4%
same,AC50,[2],"32.6 µM [falling, single point]"
O=C(N/N=C/C=C/c1ccco1)c1cnccn1,cell number change,,-15.9%
O=C(Nc1cc(C(F)(F)F)ccc1N1CCOCC1)c1c(F)c(F)c(F)c(F)c1F,cell number change,,-14.1%
Cc1[nH]c2ccccc2c1/C=C(\C#N)C(=O)NC(C)c1ccccc1 (stereo not given),AC50,[1],"0.731 µM [falling, single point]"
CC(=O)c1nc(-c2ccccc2)sc1C,cell number change,,11.8%
O=C(c1ccccc1)N1CCN(C2c3cccc4cccc(c34)C2NS(=O)(=O)c2ccccc2)CC1 (stereo not given),cell number change,,-19.8%
same,AC50,[1],"0.116 µM [falling, full curve, poor fit]"
Cc1ccc(C(=O)NCC(=O)OCC(=O)Nc2ccc3[nH]c(=O)[nH]c3c2)cc1,cell number change,,16.8%
same,AC50,[1],"20.6 µM [rising, single point]"
COc1ccccc1NS(=O)(=O)c1cc(NC(=O)c2ccc(Cl)nc2)ccc1Cl,cell number change,,16.2%
COCC(=O)Nc1c(C(=O)Nc2ccccc2OC)oc2ccccc12,AC50,[1],"6.51 µM [rising, partial curve, poor fit]"

# Reprinted at random: 3 records from the list
compound,measurement,setting,value
CCN(CC)C(=O)C1CC(=O)N(c2ccc(F)c(Cl)c2)C1 (stereo not given),AC50,[1],"29.1 µM [rising, single point]"
O=C(Nc1nccs1)c1ccc(Br)o1,AC50,[1],"25.9 µM [rising, single point]"
Cc1cc(C(=O)OCn2nnc3ccccc3c2=O)c(C)o1,cell number change,,49.4%

# Quoted from the entries so far (3 entries):
compound,measurement,setting,value
CC(C)N(Cc1ccccc1)C(=S)NCc1ccccc1,cell number change,,74.6%
same,AC50,[2],"20.6 µM [rising, single point]"
CCOC(=O)CNc1ccc(C(=O)OCC)cc1[N+](=O)[O-],cell number change,,7.31%

# — PubChem BioAssay AID2685 (National Center for Advancing Translational Sciences (NCATS), 2010)
